No constants are given. Whether binding was seen depends on the method and setting. Binding calls can cover weak binding; strength is not graded here. For some assays here: Binding seen in cells or lysates may run through a third protein.
Assays:
C/EBPα-p42 = experiment: native gel or EMSA; lysates of co-transfected HEK 293 T cells in non-denaturing lysis buffer without SDS; 8% native PAGE, Tris-glycine running buffer pH 8.8; western blot
C/EBPα-EGFP = experiment: co-IP; HEK 293 T cells co-transfected; lysed with M-PER with protease and phosphatase inhibitors; lysate incubated with antibody-bound magnetic beads at 4 °C overnight; western blot (anti-FLAG, anti-mCherry, anti-GFP)

## TQQKVLELTSDNDRLRKRVEQLSRELDTLRGIFRQL (domain or fragment) [mCherry-LZ]
C/EBPα-p42
  binding: binds
C/EBPα-EGFP
  binding: binds
